Laboratory results: the supplement of paper PMC10849652
Some of the results follow.

Sequences of proteins named here, by UniProt entry; tags and fusion partners are left off. A change or cut given only in a name is not applied to a line headed by its entry.
UniProt Q9UL63, whole entry, looked up: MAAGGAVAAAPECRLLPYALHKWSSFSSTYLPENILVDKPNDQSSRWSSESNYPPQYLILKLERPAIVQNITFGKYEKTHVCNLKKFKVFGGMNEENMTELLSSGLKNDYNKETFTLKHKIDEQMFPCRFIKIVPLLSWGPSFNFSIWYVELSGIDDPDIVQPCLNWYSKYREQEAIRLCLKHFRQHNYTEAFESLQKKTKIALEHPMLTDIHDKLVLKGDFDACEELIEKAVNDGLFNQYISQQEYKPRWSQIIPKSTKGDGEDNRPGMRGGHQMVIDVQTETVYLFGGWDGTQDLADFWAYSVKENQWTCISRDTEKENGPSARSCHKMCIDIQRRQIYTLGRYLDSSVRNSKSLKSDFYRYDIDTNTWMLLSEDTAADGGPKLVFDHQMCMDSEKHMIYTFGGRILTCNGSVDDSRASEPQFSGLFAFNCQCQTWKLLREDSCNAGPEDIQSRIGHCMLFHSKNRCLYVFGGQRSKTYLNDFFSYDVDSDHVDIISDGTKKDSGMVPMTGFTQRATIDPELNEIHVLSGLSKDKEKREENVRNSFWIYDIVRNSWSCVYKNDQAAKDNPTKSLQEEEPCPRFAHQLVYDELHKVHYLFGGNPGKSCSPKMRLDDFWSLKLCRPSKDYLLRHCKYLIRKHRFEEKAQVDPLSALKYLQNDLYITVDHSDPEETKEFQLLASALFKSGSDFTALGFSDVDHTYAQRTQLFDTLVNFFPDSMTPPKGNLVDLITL
UniProt P10620: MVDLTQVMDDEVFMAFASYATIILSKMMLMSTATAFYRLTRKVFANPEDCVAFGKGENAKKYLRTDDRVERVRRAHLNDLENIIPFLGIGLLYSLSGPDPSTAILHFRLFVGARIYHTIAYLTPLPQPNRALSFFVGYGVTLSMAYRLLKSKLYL
UniProt Q7Z3U7: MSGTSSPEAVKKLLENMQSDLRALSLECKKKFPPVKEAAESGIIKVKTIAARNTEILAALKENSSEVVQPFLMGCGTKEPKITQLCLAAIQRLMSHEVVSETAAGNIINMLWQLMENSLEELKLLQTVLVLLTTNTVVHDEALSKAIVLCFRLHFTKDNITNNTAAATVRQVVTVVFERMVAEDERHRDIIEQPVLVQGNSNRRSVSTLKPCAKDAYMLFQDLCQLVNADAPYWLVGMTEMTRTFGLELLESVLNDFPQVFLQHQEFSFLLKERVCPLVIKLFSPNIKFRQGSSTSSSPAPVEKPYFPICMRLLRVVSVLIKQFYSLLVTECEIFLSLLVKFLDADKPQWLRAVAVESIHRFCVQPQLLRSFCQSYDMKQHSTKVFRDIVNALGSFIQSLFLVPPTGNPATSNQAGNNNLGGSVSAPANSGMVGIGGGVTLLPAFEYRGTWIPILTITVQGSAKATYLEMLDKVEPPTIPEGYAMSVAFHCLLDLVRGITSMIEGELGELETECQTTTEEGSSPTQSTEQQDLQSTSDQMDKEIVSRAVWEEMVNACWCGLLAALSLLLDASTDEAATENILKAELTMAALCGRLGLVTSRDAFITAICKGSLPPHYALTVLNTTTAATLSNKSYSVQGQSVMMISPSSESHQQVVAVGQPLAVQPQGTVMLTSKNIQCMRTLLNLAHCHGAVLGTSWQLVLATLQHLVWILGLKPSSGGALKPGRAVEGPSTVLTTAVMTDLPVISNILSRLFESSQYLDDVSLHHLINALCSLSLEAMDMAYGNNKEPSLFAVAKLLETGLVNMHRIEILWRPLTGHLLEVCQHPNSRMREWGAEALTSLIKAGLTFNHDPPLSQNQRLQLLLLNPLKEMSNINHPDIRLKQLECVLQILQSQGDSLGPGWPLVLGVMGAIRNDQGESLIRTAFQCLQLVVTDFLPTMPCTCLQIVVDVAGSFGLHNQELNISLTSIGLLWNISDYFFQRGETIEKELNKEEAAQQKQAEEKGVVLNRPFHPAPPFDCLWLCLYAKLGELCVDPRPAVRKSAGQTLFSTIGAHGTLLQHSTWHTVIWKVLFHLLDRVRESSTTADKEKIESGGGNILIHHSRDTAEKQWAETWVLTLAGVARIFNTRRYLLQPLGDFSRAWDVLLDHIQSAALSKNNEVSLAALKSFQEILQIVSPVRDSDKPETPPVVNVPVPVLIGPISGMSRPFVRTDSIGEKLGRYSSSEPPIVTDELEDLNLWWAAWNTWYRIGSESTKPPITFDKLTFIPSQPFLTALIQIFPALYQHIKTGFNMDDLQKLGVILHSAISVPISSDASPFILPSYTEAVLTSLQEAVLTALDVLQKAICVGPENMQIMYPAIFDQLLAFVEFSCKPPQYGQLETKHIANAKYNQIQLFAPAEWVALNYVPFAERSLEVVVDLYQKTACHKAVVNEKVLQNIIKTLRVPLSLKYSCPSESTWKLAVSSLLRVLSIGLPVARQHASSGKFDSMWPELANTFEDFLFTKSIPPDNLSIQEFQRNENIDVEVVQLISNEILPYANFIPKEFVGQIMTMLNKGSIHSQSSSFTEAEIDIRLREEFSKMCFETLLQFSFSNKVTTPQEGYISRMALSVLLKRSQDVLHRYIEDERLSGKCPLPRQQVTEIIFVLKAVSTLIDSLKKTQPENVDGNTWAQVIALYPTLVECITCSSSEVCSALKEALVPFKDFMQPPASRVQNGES
UniProt Q99735: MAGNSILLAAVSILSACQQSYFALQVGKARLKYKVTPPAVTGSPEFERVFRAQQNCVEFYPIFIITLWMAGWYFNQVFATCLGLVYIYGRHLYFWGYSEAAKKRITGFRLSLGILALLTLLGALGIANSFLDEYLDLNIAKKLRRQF
UniProt Q14149: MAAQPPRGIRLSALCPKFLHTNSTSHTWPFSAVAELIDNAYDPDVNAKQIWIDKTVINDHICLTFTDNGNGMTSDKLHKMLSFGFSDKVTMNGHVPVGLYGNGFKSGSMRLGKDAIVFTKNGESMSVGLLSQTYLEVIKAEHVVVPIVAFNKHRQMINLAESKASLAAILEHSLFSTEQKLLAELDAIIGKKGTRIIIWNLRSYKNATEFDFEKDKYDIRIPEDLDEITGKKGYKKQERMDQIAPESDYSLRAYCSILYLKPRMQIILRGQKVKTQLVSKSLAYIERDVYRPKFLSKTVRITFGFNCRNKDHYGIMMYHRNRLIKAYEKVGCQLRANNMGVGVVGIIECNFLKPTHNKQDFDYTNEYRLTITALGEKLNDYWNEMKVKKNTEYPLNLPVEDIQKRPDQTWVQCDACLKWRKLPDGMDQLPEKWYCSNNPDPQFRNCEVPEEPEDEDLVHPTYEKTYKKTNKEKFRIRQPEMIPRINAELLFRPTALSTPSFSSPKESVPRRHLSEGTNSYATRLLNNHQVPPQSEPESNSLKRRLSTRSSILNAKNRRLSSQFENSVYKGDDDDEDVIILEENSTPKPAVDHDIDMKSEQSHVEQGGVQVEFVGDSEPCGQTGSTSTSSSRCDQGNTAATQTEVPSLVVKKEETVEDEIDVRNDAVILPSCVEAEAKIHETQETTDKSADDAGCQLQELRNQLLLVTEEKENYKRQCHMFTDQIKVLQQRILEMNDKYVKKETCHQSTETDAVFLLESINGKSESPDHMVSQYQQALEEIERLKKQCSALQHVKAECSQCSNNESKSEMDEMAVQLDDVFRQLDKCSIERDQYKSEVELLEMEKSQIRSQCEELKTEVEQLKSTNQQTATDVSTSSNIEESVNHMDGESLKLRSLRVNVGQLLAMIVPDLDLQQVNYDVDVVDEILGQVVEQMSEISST
UniProt Q6ZRQ5: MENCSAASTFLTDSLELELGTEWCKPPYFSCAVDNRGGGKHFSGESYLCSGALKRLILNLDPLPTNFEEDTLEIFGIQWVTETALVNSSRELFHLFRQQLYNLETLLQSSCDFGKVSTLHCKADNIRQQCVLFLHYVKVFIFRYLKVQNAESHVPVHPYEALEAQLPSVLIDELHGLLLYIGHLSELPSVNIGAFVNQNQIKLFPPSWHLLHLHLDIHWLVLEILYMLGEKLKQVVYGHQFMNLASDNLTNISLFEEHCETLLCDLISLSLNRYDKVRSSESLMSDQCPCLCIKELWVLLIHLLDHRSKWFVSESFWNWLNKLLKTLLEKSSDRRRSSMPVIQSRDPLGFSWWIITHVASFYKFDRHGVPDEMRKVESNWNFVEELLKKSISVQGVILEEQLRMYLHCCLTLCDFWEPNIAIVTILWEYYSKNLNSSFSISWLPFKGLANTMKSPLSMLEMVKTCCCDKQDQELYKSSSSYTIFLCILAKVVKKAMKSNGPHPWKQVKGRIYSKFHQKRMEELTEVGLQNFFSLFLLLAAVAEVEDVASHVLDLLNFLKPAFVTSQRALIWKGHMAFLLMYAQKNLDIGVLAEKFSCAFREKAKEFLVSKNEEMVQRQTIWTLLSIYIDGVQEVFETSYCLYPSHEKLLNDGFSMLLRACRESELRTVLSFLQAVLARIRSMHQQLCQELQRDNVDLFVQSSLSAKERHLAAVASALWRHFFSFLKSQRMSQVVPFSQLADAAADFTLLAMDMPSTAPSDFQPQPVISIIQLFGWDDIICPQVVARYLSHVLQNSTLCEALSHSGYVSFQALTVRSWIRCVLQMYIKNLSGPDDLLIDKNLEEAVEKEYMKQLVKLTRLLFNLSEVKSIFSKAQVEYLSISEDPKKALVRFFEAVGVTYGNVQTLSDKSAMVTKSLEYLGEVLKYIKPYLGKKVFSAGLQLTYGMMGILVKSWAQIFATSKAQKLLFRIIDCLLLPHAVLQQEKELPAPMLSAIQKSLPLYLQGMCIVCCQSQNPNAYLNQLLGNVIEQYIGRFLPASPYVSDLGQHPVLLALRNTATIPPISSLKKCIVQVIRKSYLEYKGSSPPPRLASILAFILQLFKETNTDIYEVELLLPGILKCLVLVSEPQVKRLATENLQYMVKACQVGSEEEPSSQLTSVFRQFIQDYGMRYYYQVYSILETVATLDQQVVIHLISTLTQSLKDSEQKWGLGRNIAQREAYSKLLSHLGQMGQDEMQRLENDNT
UniProt Q9NV56, whole entry, looked up: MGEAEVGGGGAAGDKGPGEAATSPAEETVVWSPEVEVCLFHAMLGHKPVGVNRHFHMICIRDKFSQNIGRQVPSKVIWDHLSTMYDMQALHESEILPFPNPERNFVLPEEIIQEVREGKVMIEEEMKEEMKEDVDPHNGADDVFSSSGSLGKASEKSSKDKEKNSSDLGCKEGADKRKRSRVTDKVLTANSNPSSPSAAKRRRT
UniProt A9UHW6: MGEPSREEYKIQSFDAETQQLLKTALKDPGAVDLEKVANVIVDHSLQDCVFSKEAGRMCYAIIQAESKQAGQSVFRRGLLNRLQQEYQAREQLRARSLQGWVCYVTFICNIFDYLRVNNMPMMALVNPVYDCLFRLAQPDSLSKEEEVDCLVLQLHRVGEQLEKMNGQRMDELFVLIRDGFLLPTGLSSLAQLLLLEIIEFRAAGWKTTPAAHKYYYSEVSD
UniProt Q99583: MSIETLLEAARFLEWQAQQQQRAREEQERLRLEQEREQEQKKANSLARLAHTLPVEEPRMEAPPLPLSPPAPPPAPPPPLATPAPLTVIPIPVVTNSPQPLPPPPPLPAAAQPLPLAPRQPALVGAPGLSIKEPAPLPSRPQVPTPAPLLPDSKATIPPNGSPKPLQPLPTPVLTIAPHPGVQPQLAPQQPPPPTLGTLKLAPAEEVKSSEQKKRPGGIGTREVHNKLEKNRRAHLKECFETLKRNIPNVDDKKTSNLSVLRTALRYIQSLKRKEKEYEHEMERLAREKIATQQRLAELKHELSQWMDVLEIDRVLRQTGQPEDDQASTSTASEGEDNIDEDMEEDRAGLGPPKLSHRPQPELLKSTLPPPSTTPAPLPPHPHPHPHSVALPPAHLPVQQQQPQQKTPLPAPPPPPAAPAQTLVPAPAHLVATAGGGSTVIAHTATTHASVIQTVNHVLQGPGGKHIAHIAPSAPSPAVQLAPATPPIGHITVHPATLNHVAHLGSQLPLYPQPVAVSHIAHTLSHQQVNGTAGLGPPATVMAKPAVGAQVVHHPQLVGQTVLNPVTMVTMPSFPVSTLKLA
UniProt Q9NZB8: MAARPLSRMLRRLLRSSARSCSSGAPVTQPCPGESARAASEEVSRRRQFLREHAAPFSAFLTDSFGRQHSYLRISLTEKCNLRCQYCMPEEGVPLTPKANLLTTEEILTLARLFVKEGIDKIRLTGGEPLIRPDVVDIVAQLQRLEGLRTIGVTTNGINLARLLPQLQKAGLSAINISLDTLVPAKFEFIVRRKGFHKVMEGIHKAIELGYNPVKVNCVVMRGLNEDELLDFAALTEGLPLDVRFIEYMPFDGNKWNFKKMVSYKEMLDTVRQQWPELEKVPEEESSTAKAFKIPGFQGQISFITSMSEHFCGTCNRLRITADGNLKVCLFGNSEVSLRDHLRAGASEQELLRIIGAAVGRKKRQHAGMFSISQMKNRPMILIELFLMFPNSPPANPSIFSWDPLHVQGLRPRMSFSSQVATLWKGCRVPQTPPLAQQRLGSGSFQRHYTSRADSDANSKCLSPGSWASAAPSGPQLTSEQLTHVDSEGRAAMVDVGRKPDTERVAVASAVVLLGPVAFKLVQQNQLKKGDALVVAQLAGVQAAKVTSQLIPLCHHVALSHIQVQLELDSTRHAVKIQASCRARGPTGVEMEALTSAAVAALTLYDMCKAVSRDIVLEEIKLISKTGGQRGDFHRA

compound: CCCS(=O)(=O)Nc1ccc(F)c(C(=O)c2c[nH]c3ncc(-c4ccc(Cl)cc4)cc23)c1F [vemurafenib]; experiment: log2 fold change, soluble protein after heating vs DMSO (PISA); higher = thermal stabilisation; K562 lysate, 10 uM; active = over 0.2 and 3.5 SD of the protein, either way, in both replicates (recomputed)
Summary of the method: (§1)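 Log-two fold change in thermal stability relative to solvent controls is reported from duplicates. For each sample, crude K562 extract from dounce-homogenised pellets in PBS pH 7.4 with 1 mM MgCl2, at 1 mg/mL protein, was treated with 10 μM compound for 30 min. Aliquots heated for 3 min across 48°C-58°C were pooled, brought to 0.5% NP-40 at 4°C and cleared at 21,000xg for 90 min. The supernatant was quantified by TMTpro 16plex LC-MS/MS with channel sums equalised.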

log2 fold change, inactive:
MKLN1 (UniProt Q9UL63) 0.004
MICAL3 (UniProt Q7RTP6) 0.037
MGST1 (UniProt P10620) 0.015
MMADHC (UniProt Q9H3L0) 0.077
MON1B (UniProt Q7L1V2) -0.019
MRPL16 (UniProt Q9NX20) 0.063
MOSPD2 (UniProt Q8NHP6) 0.003
MON2 isoform 5 (UniProt Q7Z3U7) -0.015
MGST2 (UniProt Q99735) 0.066
MICAL2 (UniProt O94851) 0.058
MKKS (UniProt Q9HB66) -0.02
MOCOS (UniProt Q96EN8) 0
MPG (UniProt P29372) 0.014
MRPL1 (UniProt Q9BYD6) 0.008
MRAS (UniProt O14807) 0.003
MOB4 (UniProt Q9Y3A3) -0.032
MIPEP (UniProt Q99797) -0.026
MLST8 (UniProt Q9BVC4) 0.025
MORC3 (UniProt Q14149) 0.025
MPV17 (UniProt P39210) -0.125
MICU2 (UniProt Q8IYU8) -0.061
MOB3B (UniProt Q86TA1) 0.016
MGA (UniProt Q8IWI9) -0.019
MNX1 (UniProt P50219) 0.014
MINDY1 isoform 3 (UniProt Q8N5J2) -0.049
MRE11 isoform 3 (UniProt P49959) 0.013
MRPL2 (UniProt Q5T653) 0.126
MPLKIP (UniProt Q8TAP9) 0.004
MMS22L (UniProt Q6ZRQ5) -0.044
MRGBP (UniProt Q9NV56) -0.028
MOCS2 (UniProt O96007) -0.02
MKRN3 (UniProt Q13064) 0.017
MGRN1 isoform 2 (UniProt O60291) 0.11
MIF4GD isoform 3 (UniProt A9UHW6) 0.016
MNT (UniProt Q99583) -0.014
MKI67 (UniProt P46013) 0.001
MOCS1 isoform 8 (UniProt Q9NZB8) 0.063
MRM1 (UniProt Q6IN84) 0.038
MITD1 (UniProt Q8WV92) 0.044

compound: CCCS(=O)(=O)Nc1ccc(F)c(C(=O)c2c[nH]c3ncc(Cl)cc23)c1F; experiment: as above
Summary of the method: as §1

log2 fold change, inactive:
MKLN1 (UniProt Q9UL63) 0.001
MICAL3 (UniProt Q7RTP6) 0.018
MGST1 (UniProt P10620) 0.018
MMADHC (UniProt Q9H3L0) 0.06
MON1B (UniProt Q7L1V2) 0.029
MRPL16 (UniProt Q9NX20) 0.01
MOSPD2 (UniProt Q8NHP6) 0.008
MON2 isoform 5 (UniProt Q7Z3U7) 0.025
MGST2 (UniProt Q99735) -0.068
MICAL2 (UniProt O94851) -0.223
MKKS (UniProt Q9HB66) 0.108
MOCOS (UniProt Q96EN8) 0.012
MPG (UniProt P29372) 0.009
MRPL1 (UniProt Q9BYD6) 0.033
MRAS (UniProt O14807) 0.05
MOB4 (UniProt Q9Y3A3) 0.049
MIPEP (UniProt Q99797) 0.004
MLST8 (UniProt Q9BVC4) 0.029
MORC3 (UniProt Q14149) 0.01
MPV17 (UniProt P39210) -0.07
MICU2 (UniProt Q8IYU8) 0.043
MOB3B (UniProt Q86TA1) 0.004
MGA (UniProt Q8IWI9) 0.102
MNX1 (UniProt P50219) -0.008
MINDY1 isoform 3 (UniProt Q8N5J2) -0.26
MRE11 isoform 3 (UniProt P49959) -0.012
MRPL2 (UniProt Q5T653) 0.009
MPLKIP (UniProt Q8TAP9) -0.037
MMS22L (UniProt Q6ZRQ5) 0.013
MRGBP (UniProt Q9NV56) 0.035
MOCS2 (UniProt O96007) 0.021
MKRN3 (UniProt Q13064) -0.01
MGRN1 isoform 2 (UniProt O60291) -0.032
MIF4GD isoform 3 (UniProt A9UHW6) 0.009
MNT (UniProt Q99583) 0.006
MKI67 (UniProt P46013) 0.015
MOCS1 isoform 8 (UniProt Q9NZB8) 0.022
MRM1 (UniProt Q6IN84) 0.029
MITD1 (UniProt Q8WV92) 0.001
